Data as given in PubChem BioAssay AID1259405 (NCATS, 2018)

Screen: 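Silenced genes that increase secreted GFP made by CHO cells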 (primary screen)
System: Chinese hamster CHO-K1 ovary cells with stable secreted eGFP expression
Reagents: single siRNA against mouse genes, 0.8 pmol siRNA per well (2 µl of 400 nM stock)
Time to read-out: 3 days
Read-out: 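Per-well intracellular GFP measured by laser scanning cytometry, plus viability from ATP luminescence, each relative to plate median of non-targeting control wells, in %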
Scale: GFP, % of control: higher = more GFP per well, higher productivity; viability (ATP), % of control: higher = more viable cells (more ATP)
Rule for the call: 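a knock-down is called active if GFP reaches 120% or more of non-targeting control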
The deposit covers about 50,000 reagents; shown is an unselected part. About 4,000 of them (8%) were called active. 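Mouse siRNA library applied to hamster cells; one well for each siRNA.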 The numbers tell different reagents against one gene apart. Reagent sequences are not shown.

Mcm3 #1 showed GFP, % of control 96.8; viability (ATP), % of control 85.3; inactive.
After knock-down of Mcm3 #2 the results were GFP, % of control 39; viability (ATP), % of control 70.1; inactive.
For Mcm3 #3, the values are GFP, % of control 57.5; viability (ATP), % of control 96.5; inactive.
Uck2 #1 gave GFP, % of control 96.4; viability (ATP), % of control 109; inactive.
Knock-down of Uck2 #2 came out at: GFP, % of control 64.1; viability (ATP), % of control 74.3; inactive.
With knock-down of Uck2 #3, the screen gave GFP, % of control 101; viability (ATP), % of control 69.4; inactive.
After knock-down of Arid5a #1 the results were GFP, % of control 33.3; viability (ATP), % of control 46; inactive.
Knock-down of Arid5a #2 resulted in: GFP, % of control 53.5; viability (ATP), % of control 64.4; inactive.
For Arid5a #3, the values are GFP, % of control 61.8; viability (ATP), % of control 70.8; inactive.
Against Osbpl2 #1, the entry reads GFP, % of control 70.6; viability (ATP), % of control 70.6; inactive.
After knock-down of Osbpl2 #2, the screen gave GFP, % of control 100; viability (ATP), % of control 85.6; inactive.
Against Osbpl2 #3, the entry reads GFP, % of control 60.4; viability (ATP), % of control 80.8; inactive.
With knock-down of Smim5 #1, the screen gave GFP, % of control 90.6; viability (ATP), % of control 88.1; inactive.
Depletion of Smim5 #2 gave: GFP, % of control 40.3; viability (ATP), % of control 36.9; inactive.
Smim5 #3 showed GFP, % of control 70.2; viability (ATP), % of control 81.8; inactive.
1700013G24Rik #1 gave GFP, % of control 84.1; viability (ATP), % of control 64.1; inactive.
With knock-down of 1700013G24Rik #2, the record shows GFP, % of control 62.8; viability (ATP), % of control 56.6; inactive.
Silencing of 1700013G24Rik #3 resulted in: GFP, % of control 57.3; viability (ATP), % of control 43.9; inactive.
For Nrtn #1, the entry reads GFP, % of control 94.3; viability (ATP), % of control 70.1; inactive.
Nrtn #2 showed GFP, % of control 67.6; viability (ATP), % of control 71.8; inactive.
With knock-down of Nrtn #3 the results were GFP, % of control 64.9; viability (ATP), % of control 78.7; inactive.
After knock-down of Commd9 #1, the record shows GFP, % of control 67.9; viability (ATP), % of control 94.2; inactive.
Knock-down of Commd9 #2 resulted in: GFP, % of control 52.7; viability (ATP), % of control 75.1; inactive.
Commd9 #3 gave GFP, % of control 87.3; viability (ATP), % of control 132; inactive.
Silencing of Synj2 #1 gave: GFP, % of control 85.9; viability (ATP), % of control 64.5; inactive.
After knock-down of Synj2 #2 the results were GFP, % of control 46.9; viability (ATP), % of control 41.9; inactive.
Synj2 #3 gave GFP, % of control 87.8; viability (ATP), % of control 68.1; inactive.
Against Miip #1 the deposit lists GFP, % of control 73.9; viability (ATP), % of control 94.6; inactive.
After knock-down of Miip #2, the record shows GFP, % of control 53.1; viability (ATP), % of control 63; inactive.
Against Miip #3, the values are GFP, % of control 116; viability (ATP), % of control 64.5; inactive.
After knock-down of Hmx3 #1, the record shows GFP, % of control 125; viability (ATP), % of control 108; active.
Knock-down of Hmx3 #2 gave: GFP, % of control 75.1; viability (ATP), % of control 78.5; inactive.
Silencing of Hmx3 #3 gave: GFP, % of control 92; viability (ATP), % of control 75.1; inactive.
Against Eepd1 #1 the deposit lists GFP, % of control 110; viability (ATP), % of control 88.1; inactive.
Eepd1 #2 showed GFP, % of control 118; viability (ATP), % of control 77.6; inactive.
Depletion of Eepd1 #3 resulted in: GFP, % of control 73.3; viability (ATP), % of control 68.7; inactive.
Against Slc43a2 #1, the values are GFP, % of control 128; viability (ATP), % of control 76.1; active.
Against Slc43a2 #2 the deposit lists GFP, % of control 107; viability (ATP), % of control 81.8; inactive.
Nemp2 #1 scored GFP, % of control 55.9; viability (ATP), % of control 52; inactive.
Nemp2 #2 scored GFP, % of control 116; viability (ATP), % of control 117; inactive.
After knock-down of Nemp2 #3 the results were GFP, % of control 134; viability (ATP), % of control 113; active.
